Assay results: PMC7819943, “Rice protein-binding microarrays: a tool to detect cis-acting elements near promoter regions in rice”
The list shows a part of the results.

Sequences of proteins named here, by UniProt entry; tags and fusion partners are left off.
UniProt Q0JBA9, entry or part of it: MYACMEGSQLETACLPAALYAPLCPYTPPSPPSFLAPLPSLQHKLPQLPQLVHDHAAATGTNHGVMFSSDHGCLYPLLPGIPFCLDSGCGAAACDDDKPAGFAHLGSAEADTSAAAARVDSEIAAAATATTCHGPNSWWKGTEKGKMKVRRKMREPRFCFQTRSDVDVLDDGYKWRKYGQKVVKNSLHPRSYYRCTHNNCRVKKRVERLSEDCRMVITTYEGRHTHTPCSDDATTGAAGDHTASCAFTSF

Molecular target: OsWRKY34 (Oryza sativa, UniProt Q0JBA9 1-250)
Test: protein-binding microarray (RPBM); PBS, 2% BSA, 51.3 ng/ul salmon testes DNA, 50 uM zinc acetate, 200 nM TF, 25 C, 1 h; high values mean tight binding
Details: protein: recombinant; tags: N-terminal polyhistidine and DsRed monomer fusion (pET32a); label: CyDye5-dUTP incorporated in the synthesized complementary strand; 3' TTTTT single-stranded linker to array surface; dsDNA, one strand shown
Outline: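 Binding signal is reported as fluorescence intensity per feature (arbitrary units) from an Axon 4000B scanner. Incubation used 200 nM of each Ni–NTA-purified, N-terminally polyhistidine- and DsRed-fused transcription factor from E. coli BL21-CodonPlus on a double-stranded custom Agilent array for 1 h at 25 °C, with 50 µM zinc acetate in the buffer, followed by washing.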

Sequence	binding signal
TATTATGGTATTATCAAATCTTGCCCGCGTATTAAAATGCCGGAGTCACCTAGTGCAG	9630 fluorescence intensity (a.u.)
TTTCTTGATTAGGGTTTGAATTCATATTACTAACTTTCCTCGGAGTCACCTAGTGCAG	8450 fluorescence intensity (a.u.)
GTTGATTGTCCTGCTTCTTTTCTGTATTGAGATTCTTGTACGGAGTCACCTAGTGCAG	8390 fluorescence intensity (a.u.)
CCATGGCGGGCGAGTTAGTTGGTCAGAGTTGTAGTTAACCCGGAGTCACCTAGTGCAG	8310 fluorescence intensity (a.u.)
GCTTAAGTGTGATCCTATCATTCCTCACCTGCATTCATTCCGGAGTCACCTAGTGCAG	9390 fluorescence intensity (a.u.)
TCTCGTCTCCTCCGCTCCTTGTGCCTGCGCCCATCGACTCCGGAGTCACCTAGTGCAG	8620 fluorescence intensity (a.u.)
TGTCGTGGTTGGGGAAAAGGGATAAATGAAGGGAGGAGGACGGAGTCACCTAGTGCAG	8210 fluorescence intensity (a.u.)
TCTCACTATTTCATTTTTTTTATTAATAATGGATGTTAAACGGAGTCACCTAGTGCAG	8460 fluorescence intensity (a.u.)
GAGAGCTGCATTTGTCTTTTCTTTTTTCAGAAGCTAGTAGCGGAGTCACCTAGTGCAG	8080 fluorescence intensity (a.u.)
TCTTCTTCTTGTTGTTCTTGTTCTTTCTTCTTCCCCTTTTCGGAGTCACCTAGTGCAG	18800 fluorescence intensity (a.u.)
TTCTTTCAACCATCAACTTCAGTTACTGTATGTATATCCCCGGAGTCACCTAGTGCAG	9410 fluorescence intensity (a.u.)
TACTTGTCTCTTTGAGCTACACTCTTTCACATCAACTTTTCGGAGTCACCTAGTGCAG	9050 fluorescence intensity (a.u.)
AAAAATCATAACGAGGTACATAATGGTCTGGGCTATCCTGCGGAGTCACCTAGTGCAG	9310 fluorescence intensity (a.u.)
CTTTTCCTTTTTATCGTTTTTCTGTTAGGAGGTTTGATCACGGAGTCACCTAGTGCAG	9240 fluorescence intensity (a.u.)
TGGTTGTGGGACTGTGGGGCCGGGTCAAGTCAAGTCAATGCGGAGTCACCTAGTGCAG	11600 fluorescence intensity (a.u.)
TCAAGCCCATTCCCATTCACCATCGCATCACACAGGCACACGGAGTCACCTAGTGCAG	8180 fluorescence intensity (a.u.)
CAGGGTTATATAATGGGTCTTATTAATAGTCTACGTTTAACGGAGTCACCTAGTGCAG	8590 fluorescence intensity (a.u.)
TTCAGTTTGGTGTTAAGCTCTCTTTGTCTCGGCCTCTGAACGGAGTCACCTAGTGCAG	8270 fluorescence intensity (a.u.)
CGAGGTCGTTTGGTTTTCTTTTCCTTTTTGGTTGTGTGTTCGGAGTCACCTAGTGCAG	9070 fluorescence intensity (a.u.)
GCAATCTGTTCAATTGGTTTTTTTTGTTTACATTTAATACCGGAGTCACCTAGTGCAG	8300 fluorescence intensity (a.u.)
TTTTTGGCTGGTCAAATTTGGCTAGTGTGGGGAGGGTTTTCGGAGTCACCTAGTGCAG	23600 fluorescence intensity (a.u.)
TGTTATTGTTTTTCCTTGAGCTCGTGACAAGTGTCTTTGTCGGAGTCACCTAGTGCAG	10200 fluorescence intensity (a.u.)
ATATACTCCTACTACATACAACTTCTTTCTTTTCCATCGTCGGAGTCACCTAGTGCAG	9900 fluorescence intensity (a.u.)
CGCCGCCGCCGCGTTGACCTCCGCCACGGTGGCCGCATCCCGGAGTCACCTAGTGCAG	9510 fluorescence intensity (a.u.)
ATCATCGTTCACCCGCATTTCATCTACTTCAATCTACATTCGGAGTCACCTAGTGCAG	9810 fluorescence intensity (a.u.)
AATGGCGCGCGAGTCTTATACCCTATGATCCCTCGTCACCCGGAGTCACCTAGTGCAG	8170 fluorescence intensity (a.u.)
TCAAAACGGCCCACTCGCCGCCCGCCACGTGTCCGACCCGCGGAGTCACCTAGTGCAG	8920 fluorescence intensity (a.u.)

Another view of some results above:
Sequence | binding signal
TATTATGGTATTATCAAATCTTGCCCGCGTATTAAAATGCCGGAGTCACCTAGTGCAG | 9630 fluorescence intensity (a.u.)
CAGGGTTATATAATGGGTCTTATTAATAGTCTACGTTTAACGGAGTCACCTAGTGCAG | 8590 fluorescence intensity (a.u.)
CGAGGTCGTTTGGTTTTCTTTTCCTTTTTGGTTGTGTGTTCGGAGTCACCTAGTGCAG | 9070 fluorescence intensity (a.u.)

Following part:

Sequence	binding signal
CAGTTTTTGAGGTAGAAGGGTATCATTGTAATTTTGCATCCGGAGTCACCTAGTGCAG	8850 fluorescence intensity (a.u.)
CATGGTGCCTCTTTTGAATTCCCTCCATATTGAACATCTACGGAGTCACCTAGTGCAG	8830 fluorescence intensity (a.u.)
GAGATAATAATTTCTCGCGCTCCTTGACTGCTTCCTTTCTCGGAGTCACCTAGTGCAG	8150 fluorescence intensity (a.u.)
GGCCAAAGGATTCAGTCGTCGTGGTTTTGCCGCAAAACTCCGGAGTCACCTAGTGCAG	8120 fluorescence intensity (a.u.)
CAGAGCACACGCCCCGAACCATATGCCAACCGCCCAAACACGGAGTCACCTAGTGCAG	11900 fluorescence intensity (a.u.)
AGATGCTCTTTGCCATGCTACTACTAGTAGTTGCTTTTGCCGGAGTCACCTAGTGCAG	9180 fluorescence intensity (a.u.)
CCGCGCCATCTCCACCGTCCATTCTCCATCCGAACCGCGCCGGAGTCACCTAGTGCAG	12800 fluorescence intensity (a.u.)
ACAAGGGAGCGACGGAGCGCGCGCGAGTACCGAGTTTGACCGGAGTCACCTAGTGCAG	8870 fluorescence intensity (a.u.)
CAAGTGGTATCAGAGCATTGTTCTCTTCTTTGGATTTTAACGGAGTCACCTAGTGCAG	9760 fluorescence intensity (a.u.)
TCCGTCCCAAAAAAAACTCAACTTAGTAGGGGTGGGGACGCGGAGTCACCTAGTGCAG	8280 fluorescence intensity (a.u.)
CTATATCATCTTCTTCTTCCCTGTCCCTTTCTCCTCGACGCGGAGTCACCTAGTGCAG	8230 fluorescence intensity (a.u.)
GCTCTGTTAAGGGTAGAGGGGTAGGGCGGATTGAGTCTTCCGGAGTCACCTAGTGCAG	10700 fluorescence intensity (a.u.)
TGTCAAGGCCTTGAGAGGCCGAGAATATTCTCTCTCGGTACGGAGTCACCTAGTGCAG	12200 fluorescence intensity (a.u.)
GGGTAGGGACGAGAATGTCGCGACACACATAATATATATACGGAGTCACCTAGTGCAG	8170 fluorescence intensity (a.u.)
ATCTCGCGTTCCTTGGTTAGCCTTCACTCCTTCAGCCATGCGGAGTCACCTAGTGCAG	9120 fluorescence intensity (a.u.)
CTCCGTGTGCGCCACCGCCGGCCACATCCTCCCGGCGCGCCGGAGTCACCTAGTGCAG	13000 fluorescence intensity (a.u.)
CATGGGAGAGGGGTGTAGAATAGTTATTCTAGGGGAGGGGCGGAGTCACCTAGTGCAG	16300 fluorescence intensity (a.u.)
GCACCTGCCGAAGACCGAGTTTAGTTTTAAACTTTTTTTCCGGAGTCACCTAGTGCAG	8860 fluorescence intensity (a.u.)
ATCCCAAATCACCAATTGCATTTCACCAAAAAAAAAACCTCGGAGTCACCTAGTGCAG	15300 fluorescence intensity (a.u.)
TGTGATGTTAAGTGTTTCTAATTCTTGTTATTATTGTATTCGGAGTCACCTAGTGCAG	8950 fluorescence intensity (a.u.)
GTCCTTGATGTTTTTTATGCTCTCCGTTCAGTGAATTATGCGGAGTCACCTAGTGCAG	11100 fluorescence intensity (a.u.)
CTCACCCTGTGTCACTCTCTCGTTCTTTCTCTCCCAGCCGCGGAGTCACCTAGTGCAG	11700 fluorescence intensity (a.u.)
AACAGGTGTGGTTTGTTTGTTTCCATTTTAAATTCTGTGACGGAGTCACCTAGTGCAG	9420 fluorescence intensity (a.u.)
AGAGTTGAGGTCAGTTGCATTTCTTTCTTAAATACTCCCTCGGAGTCACCTAGTGCAG	8730 fluorescence intensity (a.u.)
ATTTTTCCTTTTTTTTTTTTGAGTTGTGTATTCCTTACTTCGGAGTCACCTAGTGCAG	9900 fluorescence intensity (a.u.)
TCCACCACCGCCTGCCTCCATCCACCTCCACTGCAACCTCCGGAGTCACCTAGTGCAG	8120 fluorescence intensity (a.u.)
CATCCTGTAATTTCGCGCGCGGCATCTCTTTCTTTCGCGTCGGAGTCACCTAGTGCAG	9240 fluorescence intensity (a.u.)
